Our source for the binding values is patent US7067619.

Sequences of proteins named here, by UniProt entry; tags and fusion partners are left off. A change or cut given only in a name is not applied to a line headed by its entry.
UniProt P08514: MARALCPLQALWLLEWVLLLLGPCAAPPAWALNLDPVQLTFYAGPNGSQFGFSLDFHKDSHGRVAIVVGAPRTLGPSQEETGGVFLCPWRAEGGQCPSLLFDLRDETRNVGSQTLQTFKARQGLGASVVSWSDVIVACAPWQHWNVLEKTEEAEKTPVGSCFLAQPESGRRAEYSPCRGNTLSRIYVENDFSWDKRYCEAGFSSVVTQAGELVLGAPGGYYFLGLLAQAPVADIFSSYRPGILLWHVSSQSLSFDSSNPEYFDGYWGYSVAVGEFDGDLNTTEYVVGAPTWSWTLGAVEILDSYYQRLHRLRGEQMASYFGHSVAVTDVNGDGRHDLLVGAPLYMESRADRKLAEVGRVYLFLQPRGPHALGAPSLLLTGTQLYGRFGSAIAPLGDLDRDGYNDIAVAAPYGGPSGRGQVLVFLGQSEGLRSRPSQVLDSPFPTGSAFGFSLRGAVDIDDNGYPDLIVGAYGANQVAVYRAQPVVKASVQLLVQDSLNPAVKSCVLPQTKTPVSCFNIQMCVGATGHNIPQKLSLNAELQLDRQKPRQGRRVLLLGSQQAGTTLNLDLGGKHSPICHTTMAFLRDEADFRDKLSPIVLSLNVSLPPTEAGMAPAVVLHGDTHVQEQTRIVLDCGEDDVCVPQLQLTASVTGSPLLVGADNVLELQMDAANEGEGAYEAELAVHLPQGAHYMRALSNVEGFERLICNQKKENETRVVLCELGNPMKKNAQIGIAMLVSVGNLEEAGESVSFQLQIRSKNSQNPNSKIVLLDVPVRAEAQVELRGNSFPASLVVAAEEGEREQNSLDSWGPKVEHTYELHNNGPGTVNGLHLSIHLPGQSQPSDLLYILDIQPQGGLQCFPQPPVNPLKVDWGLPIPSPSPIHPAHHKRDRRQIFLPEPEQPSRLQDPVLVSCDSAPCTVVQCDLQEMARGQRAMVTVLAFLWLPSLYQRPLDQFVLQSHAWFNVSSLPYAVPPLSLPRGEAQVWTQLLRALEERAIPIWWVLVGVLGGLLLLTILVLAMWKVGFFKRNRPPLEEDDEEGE

Results are given in words; binding and its absence hold for the method and conditions named. Some results given as binding are weak or reduced against the parent protein; the word gives no strength.

This assay addresses αIIbβ3 integrin isolated from outdated platelets (UniProt P08514). Put plainly: phage panning on coated integrin.

As to CGRGDGDC [CGRGDGDC phage], the binding result is “binds”.

Turning to CSGRHDDYC, the binding entry is listed as “binds”. CRRMDMPDC: the binding entry was “binds”. Take CRGDNYWC [CRGDNYWC phage]: the binding entry is “binds”. For the molecule CWVRSDLGC, the binding entry is reported as “binds”. With CKRRDYPC [CKRRDYPC phage], the binding entry was “binds”.

Take CKRGDWIRC: the binding result was “binds”. In the case of CGARGDSRC, the binding entry is listed as “binds”.

For CRGDRALC [CRGDRALC phage], the binding result was “binds”. With CHSTRDELC the entry was “binds”; with CGRLDVPC [CGRLDVPC phage], “binds”. In the case of CYRRDVPC [CYRRDVPC phage], the binding entry is recorded as “binds”.

Regarding CRYRGDLPC, the binding result was “binds”.

On to CSARGDWPC, for which the binding entry is listed as “binds”.

For the molecule CPRGDWPC [CPRGDWPC phage], the binding entry was “binds”. As for CWARRDMPC, the binding result was “binds”. For the molecule CHIRGDFPC, the binding result was “binds”. For the molecule CRRGDFGGC, the binding result was “binds”.

As for CRGDTRSC [CRGDTRSC phage], the binding entry is given as “binds”.

Consider CGRGDQLC [CGRGDQLC phage], for which the binding result was “binds”. In the case of CTARSDRRC, the binding result is given as “binds”. As for CRHDSPRC [CRHDSPRC phage], the binding result is reported as “binds”. Turning to CRADVPLC [CRADVPLC phage], the binding entry was “binds”. As to CTRTDGWC [CTRTDGWC phage], the binding result is “binds”.

For the molecule CYARGDYPC, the binding entry is “binds”. Regarding CMRTDGRC [CMRTDGRC phage], the binding entry is recorded as “binds”.

On to CVRGDRMC [CVRGDRMC phage], for which the binding entry is “binds”. Regarding CPLRRDWIC, the binding result is listed as “binds”.

Turning to CFSRGDFPC, the binding result is “binds”.

Turning to CKGDMPRC [CKGDMPRC phage], the binding entry is recorded as “binds”. Regarding CMSRADRPC, the binding result was “binds”.

Turning to CRTRDSPC [CRTRDSPC phage], the binding entry is on record as “binds”.

As to CVVRDMPC [CVVRDMPC phage], the binding result is listed as “binds”.

As for CRGDNSAC [CRGDNSAC phage], the binding result is given as “binds”.
